To fix the notation:
T1: RNF128, RING finger protein 128 (mouse (endogenous in lung tissue)) (UniProt Q9D304)
T1 sequence: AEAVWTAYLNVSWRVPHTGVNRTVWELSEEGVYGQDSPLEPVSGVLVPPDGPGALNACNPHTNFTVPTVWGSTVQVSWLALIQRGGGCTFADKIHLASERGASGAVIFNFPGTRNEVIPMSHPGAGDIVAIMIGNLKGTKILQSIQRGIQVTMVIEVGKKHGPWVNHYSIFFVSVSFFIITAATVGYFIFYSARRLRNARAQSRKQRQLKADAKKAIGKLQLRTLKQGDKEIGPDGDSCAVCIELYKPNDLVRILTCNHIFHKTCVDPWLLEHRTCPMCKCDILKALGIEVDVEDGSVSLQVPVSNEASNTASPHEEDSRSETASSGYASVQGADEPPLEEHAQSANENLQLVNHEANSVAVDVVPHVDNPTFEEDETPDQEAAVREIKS

B1: Destrin (protein, UniProt Q9R0P5 1-165)
chain: MASGVQVADEVCRIFYDMKVRKCSTPEEIKKRKKAVIFCLSADKKCIVVEEGKEILVGDVGATITDPFKHFVGMLPEKDCRYALYDASFETKESRKEELMFFLWAPEQAPLKSKMIYASSKDAIKKKFPGIKHEYQANGPEDLNRTCIAEKLGGSLIVAFEGSPV
B2: Heterogeneous nuclear ribonucleoprotein L (protein, UniProt Q8R081 1-586)
chain: MSRRLLPRAEKRRRRLEQRQQPDEQLRRAGAMVKMAAAGGGGGGGRYYGGGNEGGRAPKRLKTENAGDQHGGGGGGGSGAAGGGGGENYDDPHKTPASPVVHIRGLIDGVVEADLVEALQEFGPISYVVVMPKKRQALVEFEDVLGACNAVNYAADNQIYIAGHPAFVNYSTSQKISRPGDSDDSRSVNSVLLFTILNPIYSITTDVLYTICNPCGPVQRIVIFRKNGVQAMVEFDSVQSAQRAKASLNGADIYSGCCTLKIEYAKPTRLNVFKNDQDTWDYTNPNLSGQGDPGSNPNKRQRQPPLLGDHPAEYGGPHGGYHSHYHDEGYGPPPPHYEGRRMGPPVGGHRRGPSRYGPQYGHPPPPPPPPDYGPHADSPVLMVYGLDQSKMNCDRVFNVFCLYGNVEKVKFMKSKPGAAMVEMADGYAVDRAITHLNNNFMFGQKMNVCVSKQPAIMPGQSYGLEDGSCSYKDFSESRNNRFSTPEQAAKNRIQHPSNVLHFFNAPLEVTEENFFEICDELGVKRPTSVKVFSGKSERSSSGLLEWDSKSDALETLGFLNHYQMKNPNGPYPYTLKLCFSTAQHAS
B3: Pulmonary surfactant-associated protein D (protein, UniProt P50404 20-374)
chain: AEMKSLSQRSVPNTCTLVMCSPTENGLPGRDGRDGREGPRGEKGDPGLPGPMGLSGLQGPTGPVGPKGENGSAGEPGPKGERGLSGPPGLPGIPGPAGKEGPSGKQGNIGPQGKPGPKGEAGPKGEVGAPGMQGSTGAKGSTGPKGERGAPGVQGAPGNAGAAGPAGPAGPQGAPGSRGPPGLKGDRGVPGDRGIKGESGLPDSAALRQQMEALKGKLQRLEVAFSHYQKAALFPDGRSVGDKIFRTADSEKPFEDAQEMCKQAGGQLASPRSATENAAIQQLITAHNKAAFLSMTDVGTEGKFTYPTGEPLVYSNWAPGEPNNNGGAENCVEIFTNGQWNDKACGEQRLVICEF
B4: Nucleolar RNA helicase 2 (protein, UniProt Q9JIK5 1-851)
chain: MPGKLRSGAKLGSDGAEESMETLPKPSEKKTRKEKTKSKTEEATEGMEEAVSSKAKKTNKKGPSEDDVDPPKSRKAKKQEEEPQDDTASTSKTSKKKKEPLEKQADSETKEIITEEPSEEEADMPKPKKMKKGKEANGDAGEKSPKLKNGLSQPSEEEADIPKPKKMKKGKEANGDAGEKSPKLKNGLSQPSEEEVDIPKPKKMKKGKEASGDAGEKSPRLKDGLSQPSEPKSNSSDAPGEESSSETEKEIPVEQKEGAFSNFPISEETVKLLKARGVNFLFPIQAKTFHHVYSGKDLIAQARTGTGKTFSFAIPLIEKLQGGLQERKRGRAPQVLVLAPTRELANQVSKDFSDITKKLSVACFYGGTPYGGQIERMRSGIDILVGTPGRIKDHLQNGKLDLTKLKHVVLDEVDQMLDMGFADQVEEILCVAYKKDSEDNPQTLLFSATCPHWVFNVAKKYMKSTYEQVDLIGKKTQKAAITVEHLAIKCHWTERAAVIGDVIRVYSGHQGRTIIFCETKKDAQELSQNTCIKQDAQSLHGDIPQKQREITLKGFRNGNFGVLVATNVAARGLDIPEVDLVVQSCPPKDVESYIHRSGRTGRAGRTGVCICFYQNKEEYQLAQVEQKAGIKFKRIGVPSATEIIKASSKDAIRLLDSVPPTAISHFKQSAEKLIEEKGAVEALAAALAHISGATSVDQRSLINSQAGFVTMILRCSIEMPNISYAWKELKEQLGESIDAKVKGMVFLKGKLGVCFDVRTEAVTEIQEKWHDSRRWQLTVATEQPELEGPPDGYRGRMGQRDGSRGAFRGQRGGSRNFRGQGQRGGSRNFRGQRPGGGNRGQKRSFSKAFGQ
B5: Dihydrolipoyllysine-residue acetyltransferase component of pyruvate dehydrogenase complex, mitochondrial (protein, UniProt Q8BMF4 86-642)
chain: SLPPHQKVPLPSLSPTMQAGTIARWEKKEGEKISEGDLIAEVETDKATVGFESLEECYMAKILVPEGTRDVPVGSIICITVEKPQDIEAFKNYTLDLAAAAAPQAAPAAAPAPAAAPAAPSASAPGSSYPTHMQIVLPALSPTMTMGTVQRWEKKVGEKLSEGDLLAEIETDKATIGFEVQEEGYLAKILVPEGTRDVPLGAPLCIIVEKQEDIAAFADYRPTEVTSLKPQAAPPAPPPVAAVPPTPQPVAPTPSAAPAGPKGRVFVSPLAKKLAAEKGIDLTQVKGTGPEGRIIKKDIDSFVPSKAAPAAAAAMAPPGPRVAPAPAGVFTDIPISNIRRVIAQRLMQSKQTIPHYYLSVDVNMGEVLLVRKELNKMLEGKGKISVNDFIIKASALACLKVPEANSSWMDTVIRQNHVVDVSVAVSTPAGLITPIVFNAHIKGLETIASDVVSLASKAREGKLQPHEFQGGTFTISNLGMFGIKNFSAIINPPQACILAIGASEDKLIPADNEKGFDVASVMSVTLSCDHRVVDGAVGAQWLAEFKKYLEKPITMLL
B6: NHP2-like protein 1 (protein, UniProt Q9D0T1 1-128)
chain: MTEADVNPKAYPLADAHLTKKLLDLVQQSCNYKQLRKGANEATKTLNRGISEFIVMAADAEPLEIILHLPLLCEDKNVPYVFVRSKQALGRACGVSRPVIACSVTIKEGSQLKQQIQSIQQSIERLLV
B7: Complement C1q subcomponent subunit C (protein, UniProt Q02105 30-246)
chain: SAGCYGIPGMPGMPGAPGKDGHDGLQGPKGEPGIPAVPGTRGPKGQKGEPGMPGHRGKNGPRGTSGLPGDPGPRGPPGEPGVEGRYKQKHQSVFTVTRQTTQYPEANALVRFNSVVTNPQGHYNPSTGKFTCEVPGLYYFVYYTSHTANLCVHLNLNLARVASFCDHMFNSKQVSSGGVLLRLQRGDEVWLSVNDYNGMVGIEGSNSVFSGFLLFPD
B8: Splicing factor, proline- and glutamine-rich (protein, UniProt Q8VIJ6 1-699)
chain: MSRDRFRSRGGGGGGFHRRGGGGGRGGLHDFRSPPPGMGLNQNRGPMGPGPGGPKPPLPPPPPHQQQQQPPPQQPPPQQPPPHQQPPPHQPPHQQPPPPPQESKPVVPQGPGSAPGVSSAPPPAVSAPPANPPTTGAPPGPGPTPTPPPAVPSTAPGPPPPSTPSSGVSTTPPQTGGPPPPPAGGAGPGPKPGPGPGGPKGGKMPGGPKPGGGPGMGAPGGHPKPPHRGGGEPRGGRQHHAPYHQQHHQGPPPGGPGPRTEEKISDSEGFKANLSLLRRPGEKTYTQRCRLFVGNLPADITEDEFKRLFAKYGEPGEVFINKGKGFGFIKLESRALAEIAKAELDDTPMRGRQLRVRFATHAAALSVRNLSPYVSNELLEEAFSQFGPIERAVVIVDDRGRSTGKGIVEFASKPAARKAFERCSEGVFLLTTTPRPVIVEPLEQLDDEDGLPEKLAQKNPMYQKERETPPRFAQHGTFEYEYSQRWKSLDEMEKQQREQVEKNMKDAKDKLESEMEDAYHEHQANLLRQDLMRRQEELRRMEELHSQEMQKRKEMQLRQEEERRRREEEMMIRQREMEEQMRRQREESYSRMGYMDPRERDMRMGGGGTMNMGDPYGSGGQKFPPLGGGGGIGYEANPGVPPATMSGSMMGSDMRTERFGQGGAGPVGGQGPRGMGPGTPAGYGRGREEYEGPNKKPRF

The values that follow come from article PMC10284794.

No constants are given. Whether binding was seen depends on the method and setting. Binding seen in cells or lysates may run through a third protein. A yes stands for co-enrichment or nearness to the bait. Other partners may have been found.

In this assay the target is T1, RNF128, RING finger protein 128 (mouse (endogenous in lung tissue)). Nature of the assay: affinity purification with mass spectrometry; whole lung tissue lysates from WT and WT-LPS mice immunoprecipitated using the RNF128 antibody; trypsin digest, LC-MS/MS; hits at least 2-fold more abundant in WT-LPS than in WT.
For B1, the binding entry is recorded as “binds”. As to B2, the binding result was “binds”. Then B3, with “binds”; and B4, with “binds”; and B5, with “binds”.

With B6, the binding result is reported as “binds”.

For the molecule B7, the binding entry is listed as “binds”. Consider B8, for which the binding result was “binds”.
